Source: PMC4669745

Sequences of proteins named here, by UniProt entry; tags and fusion partners are left off. A change or cut given only in a name is not applied to a line headed by its entry.
UniProt Q07812: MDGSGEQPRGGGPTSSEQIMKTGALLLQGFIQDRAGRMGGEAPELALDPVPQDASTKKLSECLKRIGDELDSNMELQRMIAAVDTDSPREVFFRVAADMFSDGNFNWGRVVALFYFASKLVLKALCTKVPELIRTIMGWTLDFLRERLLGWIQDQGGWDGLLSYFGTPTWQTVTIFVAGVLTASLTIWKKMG

Target: BAX fusion protein (Proteintech) (UniProt Q07812)
Experiment: pull-down; GST or BAX fusion protein on G-Sepharose beads for 2 h in binding buffer (1% Triton X-100, 50 mM Tris-HCl pH 7.4, 250 mM NaCl), then cell lysates for 2 h; bound proteins by immunoblot; only the target purified

binding: binds
B1: DRAM1 (DNA damage-regulated autophagy modulator 1) (protein, UniProt Q8N682 1-238)
chain: MLCFLRGMAFVPFLLVTWSSAAFIISYVVAVLSGHVNPFLPYISDTGTTPPESGIFGFMINFSAFLGAATMYTRYKIVQKQNQTCYFSTPVFNLVSLVLGLVGCFGMGIVANFQELAVPVVHDGGALLAFVCGVVYTLLQSIISYKSCPQWNSLSTCHIRMVISAVSCAAVIPMIVCASLISITKLEWNPREKDYVYHVVSAICEWTVAFGFIFYFLTFIQDFQSVTLRISTEINGDI

No constants are given. Whether binding was seen depends on the method and setting. In cells and extracts the contact can be indirect. A result given as binding can be weak or reduced; the word gives no strength.
